According to publication PMC4403447:
Results are given in words; binding and its absence hold for the method and conditions named. Some results given as binding are weak or reduced against the parent protein; the word gives no strength.

Amino acid sequences for entries named in this document (tags omitted).
UniProt P10591: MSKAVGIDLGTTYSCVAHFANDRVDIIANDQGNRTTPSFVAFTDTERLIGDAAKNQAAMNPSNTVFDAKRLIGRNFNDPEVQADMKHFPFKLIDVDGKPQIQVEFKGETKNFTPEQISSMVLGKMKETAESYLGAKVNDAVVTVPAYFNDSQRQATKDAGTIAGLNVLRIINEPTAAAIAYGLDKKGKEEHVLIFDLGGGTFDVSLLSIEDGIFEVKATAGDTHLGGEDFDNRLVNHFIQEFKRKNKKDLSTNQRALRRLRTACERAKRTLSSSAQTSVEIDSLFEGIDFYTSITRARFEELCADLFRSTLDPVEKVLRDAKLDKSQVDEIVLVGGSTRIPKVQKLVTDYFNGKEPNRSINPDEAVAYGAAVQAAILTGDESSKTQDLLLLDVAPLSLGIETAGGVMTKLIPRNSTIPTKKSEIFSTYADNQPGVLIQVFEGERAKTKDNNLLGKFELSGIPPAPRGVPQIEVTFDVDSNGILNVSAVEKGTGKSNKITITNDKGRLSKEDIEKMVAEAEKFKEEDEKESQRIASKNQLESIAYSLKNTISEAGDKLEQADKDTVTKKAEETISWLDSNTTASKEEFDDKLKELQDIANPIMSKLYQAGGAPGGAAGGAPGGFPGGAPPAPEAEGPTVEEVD

Legend:
yHsp70 (Ssa1) (yeast) [1] = target: yHsp70 (Ssa1) (yeast) (UniProt P10591); assay: SPR; Hsp70 amine-coupled to a CM5 chip, Sti1 variants as analyte; 40 mM Hepes pH 7.5, 20 mM KCl, 5 mM MgCl2, 0.005% Tween; 10 μl/min; 20 °C; Langmuir isotherm; affinities shown normalized to wild-type Sti1; both purified
yHsp70 (Ssa1) (yeast) [2] = target: yHsp70 (Ssa1) (yeast) (UniProt P10591); assay: SAXS; mixtures of a Sti1 variant and Hsp70 at 1:1 and 1:2; solute 1 to 10 mg/ml; in-house SAXSess mc2; masses from I(0); both purified
[3] = target: Sti1 (stress-inducible protein 1), wild type (S. cerevisiae) (UniProt P15705); assay: AUC; sedimentation of Sti1 or Sti1 Δlinker alone, absorbance optics at 280 nm, c(S) module of UltraScan; both purified

B1: Sti1 TPR2B (domain or fragment, UniProt P15705 395-518)
chain: KAEEARLEGKEYFTKSDWPNAVKAYTEMIKRAPEDARGYSNRAAALAKLMSFPEAIADCNKAIEKDPNFVRAYIRKATAQIAVKEYASALETLDAARTKDAEVNNGSSAREIDQLYYKASQQRF
binding (yHsp70 (Ssa1) (yeast) [1]): binds | binding (yHsp70 (Ssa1) (yeast) [2]): binds

B2: Sti1 (stress-inducible protein 1), wild type (protein, UniProt P15705 1-589)
chain: MSLTADEYKQQGNAAFTAKDYDKAIELFTKAIEVSETPNHVLYSNRSACYTSLKKFSDALNDANECVKINPSWSKGYNRLGAAHLGLGDLDEAESNYKKALELDASNKAAKEGLDQVHRTQQARQAQPDLGLTQLFADPNLIENLKKNPKTSEMMKDPQLVAKLIGYKQNPQAIGQDLFTDPRLMTIMATLMGVDLNMDDINQSNSMPKEPETSKSTEQKKDAEPQSDSTTSKENSSKAPQKEESKESEPMEVDEDDSKIEADKEKAEGNKFYKARQFDEAIEHYNKAWELHKDITYLNNRAAAEYEKGEYETAISTLNDAVEQGREMRADYKVISKSFARIGNAYHKLGDLKKTIEYYQKSLTEHRTADILTKLRNAEKELKKAEAEAYVNPEKAEEARLEGKEYFTKSDWPNAVKAYTEMIKRAPEDARGYSNRAAALAKLMSFPEAIADCNKAIEKDPNFVRAYIRKATAQIAVKEYASALETLDAARTKDAEVNNGSSAREIDQLYYKASQQRFQPGTSNETPEETYQRAMKDPEVAAIMQDPVMQSILQQAQQNPAALQEHMKNPEVFKKIQTLIAAGIIRTGR
binding [3]: no binding
